# The other results are listed elsewhere or left out.
# Chains of the proteins cited; added tags and fusions are not shown. Lines headed by an entry give the natural chain unless they say otherwise; changes in a name come on top.
# UniProt Q6NUK4: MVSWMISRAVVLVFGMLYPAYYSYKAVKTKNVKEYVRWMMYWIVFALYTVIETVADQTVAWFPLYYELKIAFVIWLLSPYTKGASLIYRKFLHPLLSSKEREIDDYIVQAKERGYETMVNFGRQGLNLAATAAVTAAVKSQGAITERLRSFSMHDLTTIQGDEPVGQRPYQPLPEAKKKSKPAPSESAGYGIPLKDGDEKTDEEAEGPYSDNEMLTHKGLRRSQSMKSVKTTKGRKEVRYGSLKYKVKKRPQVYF
# UniProt Q8N1G1: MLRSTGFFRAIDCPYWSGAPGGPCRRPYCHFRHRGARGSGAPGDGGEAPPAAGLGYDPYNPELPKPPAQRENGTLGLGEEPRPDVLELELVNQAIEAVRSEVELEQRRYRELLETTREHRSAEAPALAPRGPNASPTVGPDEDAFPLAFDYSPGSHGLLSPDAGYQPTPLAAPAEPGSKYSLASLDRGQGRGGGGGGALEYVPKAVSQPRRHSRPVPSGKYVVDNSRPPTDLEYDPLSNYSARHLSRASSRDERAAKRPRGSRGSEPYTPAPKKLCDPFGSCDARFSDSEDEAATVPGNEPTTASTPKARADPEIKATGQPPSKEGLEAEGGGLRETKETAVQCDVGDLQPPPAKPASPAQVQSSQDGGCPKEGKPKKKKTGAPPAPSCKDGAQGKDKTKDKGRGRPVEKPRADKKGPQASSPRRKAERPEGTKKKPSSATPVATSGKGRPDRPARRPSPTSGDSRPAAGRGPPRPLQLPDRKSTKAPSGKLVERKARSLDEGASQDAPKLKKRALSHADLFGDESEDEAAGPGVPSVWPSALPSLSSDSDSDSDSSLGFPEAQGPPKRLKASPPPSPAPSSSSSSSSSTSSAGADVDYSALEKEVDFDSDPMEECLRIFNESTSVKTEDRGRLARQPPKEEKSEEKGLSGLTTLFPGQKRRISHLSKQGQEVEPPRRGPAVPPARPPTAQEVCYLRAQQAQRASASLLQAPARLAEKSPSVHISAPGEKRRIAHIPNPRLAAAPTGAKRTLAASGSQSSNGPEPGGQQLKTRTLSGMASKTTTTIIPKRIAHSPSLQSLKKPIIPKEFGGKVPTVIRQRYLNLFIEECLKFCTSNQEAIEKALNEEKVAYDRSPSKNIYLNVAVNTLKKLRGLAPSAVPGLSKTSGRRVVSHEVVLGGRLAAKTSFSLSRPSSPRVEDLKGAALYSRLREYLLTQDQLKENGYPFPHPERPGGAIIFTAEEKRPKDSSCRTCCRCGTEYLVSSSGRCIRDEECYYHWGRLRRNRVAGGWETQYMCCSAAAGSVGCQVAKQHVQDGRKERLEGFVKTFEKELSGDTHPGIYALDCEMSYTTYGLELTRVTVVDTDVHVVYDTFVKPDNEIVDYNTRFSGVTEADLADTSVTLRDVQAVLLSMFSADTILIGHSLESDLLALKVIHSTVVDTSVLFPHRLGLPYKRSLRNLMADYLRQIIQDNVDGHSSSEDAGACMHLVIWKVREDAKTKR
# UniProt Q8IUW5: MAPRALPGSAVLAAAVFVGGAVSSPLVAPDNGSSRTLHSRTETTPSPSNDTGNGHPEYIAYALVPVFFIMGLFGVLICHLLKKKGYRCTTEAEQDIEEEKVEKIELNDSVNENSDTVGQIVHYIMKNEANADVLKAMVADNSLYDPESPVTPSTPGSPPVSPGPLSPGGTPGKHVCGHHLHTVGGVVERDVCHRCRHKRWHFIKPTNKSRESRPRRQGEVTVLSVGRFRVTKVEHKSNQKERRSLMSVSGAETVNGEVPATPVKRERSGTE
# UniProt Q8N0T1: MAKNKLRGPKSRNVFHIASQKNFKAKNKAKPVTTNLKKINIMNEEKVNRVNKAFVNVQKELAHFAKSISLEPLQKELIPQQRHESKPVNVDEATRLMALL
# UniProt O75884: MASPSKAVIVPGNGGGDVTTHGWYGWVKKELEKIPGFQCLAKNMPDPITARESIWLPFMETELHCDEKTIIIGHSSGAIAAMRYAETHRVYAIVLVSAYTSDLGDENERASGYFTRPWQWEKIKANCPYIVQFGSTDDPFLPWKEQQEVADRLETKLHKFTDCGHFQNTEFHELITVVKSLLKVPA
# UniProt Q9BQ04: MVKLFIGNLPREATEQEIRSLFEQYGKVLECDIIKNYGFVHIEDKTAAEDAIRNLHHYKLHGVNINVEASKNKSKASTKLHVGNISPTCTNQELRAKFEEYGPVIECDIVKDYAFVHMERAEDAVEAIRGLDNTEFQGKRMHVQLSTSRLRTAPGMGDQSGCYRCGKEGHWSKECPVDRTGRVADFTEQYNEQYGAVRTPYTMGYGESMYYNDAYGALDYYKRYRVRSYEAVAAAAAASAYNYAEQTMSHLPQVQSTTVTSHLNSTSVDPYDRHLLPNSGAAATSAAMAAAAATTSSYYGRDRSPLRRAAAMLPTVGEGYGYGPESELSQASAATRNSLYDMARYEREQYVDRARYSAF
# UniProt P48378: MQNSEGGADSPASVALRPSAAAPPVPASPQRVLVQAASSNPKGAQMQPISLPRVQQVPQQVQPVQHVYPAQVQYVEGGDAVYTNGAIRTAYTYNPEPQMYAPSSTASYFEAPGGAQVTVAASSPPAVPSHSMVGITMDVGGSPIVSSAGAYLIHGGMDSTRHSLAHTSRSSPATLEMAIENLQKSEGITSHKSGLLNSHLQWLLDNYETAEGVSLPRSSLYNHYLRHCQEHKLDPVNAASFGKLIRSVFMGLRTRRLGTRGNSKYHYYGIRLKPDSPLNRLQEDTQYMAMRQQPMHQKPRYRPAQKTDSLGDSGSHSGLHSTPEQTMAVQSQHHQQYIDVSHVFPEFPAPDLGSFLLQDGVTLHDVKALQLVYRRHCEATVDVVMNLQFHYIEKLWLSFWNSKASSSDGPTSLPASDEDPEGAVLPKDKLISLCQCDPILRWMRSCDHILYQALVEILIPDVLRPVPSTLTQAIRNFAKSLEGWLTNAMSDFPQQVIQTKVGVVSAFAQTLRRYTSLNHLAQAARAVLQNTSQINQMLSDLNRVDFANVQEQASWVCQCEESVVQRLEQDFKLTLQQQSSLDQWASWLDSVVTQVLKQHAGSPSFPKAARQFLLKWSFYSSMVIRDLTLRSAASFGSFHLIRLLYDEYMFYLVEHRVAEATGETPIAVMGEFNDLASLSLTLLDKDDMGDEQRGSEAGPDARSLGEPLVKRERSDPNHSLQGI
# UniProt Q8TEB9: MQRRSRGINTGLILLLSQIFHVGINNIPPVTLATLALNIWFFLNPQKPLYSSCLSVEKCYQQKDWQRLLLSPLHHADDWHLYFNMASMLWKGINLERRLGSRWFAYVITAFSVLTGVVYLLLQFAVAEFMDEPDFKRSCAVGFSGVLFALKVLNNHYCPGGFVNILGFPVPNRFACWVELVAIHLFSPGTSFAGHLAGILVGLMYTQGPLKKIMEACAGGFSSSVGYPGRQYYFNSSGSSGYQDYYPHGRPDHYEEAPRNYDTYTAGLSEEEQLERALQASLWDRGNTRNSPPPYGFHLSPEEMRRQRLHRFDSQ
# UniProt A6NEQ0: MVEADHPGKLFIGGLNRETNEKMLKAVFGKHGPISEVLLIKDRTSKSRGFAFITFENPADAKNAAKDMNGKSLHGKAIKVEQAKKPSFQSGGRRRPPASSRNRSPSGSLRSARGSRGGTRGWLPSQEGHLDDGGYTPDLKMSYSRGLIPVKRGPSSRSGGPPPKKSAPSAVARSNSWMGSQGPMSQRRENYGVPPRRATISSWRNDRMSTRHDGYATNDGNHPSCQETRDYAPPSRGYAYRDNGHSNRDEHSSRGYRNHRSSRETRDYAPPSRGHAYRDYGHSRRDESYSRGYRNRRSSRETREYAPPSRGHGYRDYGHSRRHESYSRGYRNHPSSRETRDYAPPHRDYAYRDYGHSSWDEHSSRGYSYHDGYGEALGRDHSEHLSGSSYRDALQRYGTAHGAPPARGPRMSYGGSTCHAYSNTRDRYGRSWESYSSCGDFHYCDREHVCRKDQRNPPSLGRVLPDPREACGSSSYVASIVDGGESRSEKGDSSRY
# UniProt Q9HBD1: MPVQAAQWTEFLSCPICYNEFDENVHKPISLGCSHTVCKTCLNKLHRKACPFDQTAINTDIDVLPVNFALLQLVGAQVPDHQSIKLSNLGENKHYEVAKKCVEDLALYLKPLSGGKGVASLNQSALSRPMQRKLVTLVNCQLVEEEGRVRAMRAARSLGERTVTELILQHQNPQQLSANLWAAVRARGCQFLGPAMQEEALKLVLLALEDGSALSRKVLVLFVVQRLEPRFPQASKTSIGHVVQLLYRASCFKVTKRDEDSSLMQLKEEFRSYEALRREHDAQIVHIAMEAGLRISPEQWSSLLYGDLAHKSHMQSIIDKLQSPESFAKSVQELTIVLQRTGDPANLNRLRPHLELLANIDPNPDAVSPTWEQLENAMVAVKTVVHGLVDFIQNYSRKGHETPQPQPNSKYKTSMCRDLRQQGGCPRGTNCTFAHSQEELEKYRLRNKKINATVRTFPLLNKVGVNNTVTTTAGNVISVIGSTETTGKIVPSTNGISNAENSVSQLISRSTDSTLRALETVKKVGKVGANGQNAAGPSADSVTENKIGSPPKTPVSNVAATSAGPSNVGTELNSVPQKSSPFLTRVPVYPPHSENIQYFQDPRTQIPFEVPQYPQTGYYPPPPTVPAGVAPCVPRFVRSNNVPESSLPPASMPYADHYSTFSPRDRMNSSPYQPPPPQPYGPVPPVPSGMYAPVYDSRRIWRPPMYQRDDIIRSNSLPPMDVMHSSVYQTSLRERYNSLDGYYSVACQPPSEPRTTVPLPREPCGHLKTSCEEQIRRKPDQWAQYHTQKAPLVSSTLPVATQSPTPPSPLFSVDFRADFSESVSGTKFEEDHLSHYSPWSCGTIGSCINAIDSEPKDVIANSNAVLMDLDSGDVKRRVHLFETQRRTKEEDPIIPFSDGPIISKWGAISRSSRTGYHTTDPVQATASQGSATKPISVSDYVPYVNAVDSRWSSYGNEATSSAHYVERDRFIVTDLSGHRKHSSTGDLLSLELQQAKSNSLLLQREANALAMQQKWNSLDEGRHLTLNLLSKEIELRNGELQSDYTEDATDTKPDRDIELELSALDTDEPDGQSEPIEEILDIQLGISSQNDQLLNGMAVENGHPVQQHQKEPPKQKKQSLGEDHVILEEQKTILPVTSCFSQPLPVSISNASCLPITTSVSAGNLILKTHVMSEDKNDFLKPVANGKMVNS
# UniProt Q9H477: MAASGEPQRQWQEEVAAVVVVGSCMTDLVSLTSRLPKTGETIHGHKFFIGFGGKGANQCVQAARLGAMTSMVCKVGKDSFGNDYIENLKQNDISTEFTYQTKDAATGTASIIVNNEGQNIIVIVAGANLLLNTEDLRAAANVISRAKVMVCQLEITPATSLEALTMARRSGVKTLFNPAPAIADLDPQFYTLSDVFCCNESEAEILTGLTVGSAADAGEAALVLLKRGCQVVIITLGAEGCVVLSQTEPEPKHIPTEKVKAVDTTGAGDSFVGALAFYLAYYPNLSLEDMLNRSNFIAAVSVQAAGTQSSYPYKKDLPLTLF
# UniProt Q13127: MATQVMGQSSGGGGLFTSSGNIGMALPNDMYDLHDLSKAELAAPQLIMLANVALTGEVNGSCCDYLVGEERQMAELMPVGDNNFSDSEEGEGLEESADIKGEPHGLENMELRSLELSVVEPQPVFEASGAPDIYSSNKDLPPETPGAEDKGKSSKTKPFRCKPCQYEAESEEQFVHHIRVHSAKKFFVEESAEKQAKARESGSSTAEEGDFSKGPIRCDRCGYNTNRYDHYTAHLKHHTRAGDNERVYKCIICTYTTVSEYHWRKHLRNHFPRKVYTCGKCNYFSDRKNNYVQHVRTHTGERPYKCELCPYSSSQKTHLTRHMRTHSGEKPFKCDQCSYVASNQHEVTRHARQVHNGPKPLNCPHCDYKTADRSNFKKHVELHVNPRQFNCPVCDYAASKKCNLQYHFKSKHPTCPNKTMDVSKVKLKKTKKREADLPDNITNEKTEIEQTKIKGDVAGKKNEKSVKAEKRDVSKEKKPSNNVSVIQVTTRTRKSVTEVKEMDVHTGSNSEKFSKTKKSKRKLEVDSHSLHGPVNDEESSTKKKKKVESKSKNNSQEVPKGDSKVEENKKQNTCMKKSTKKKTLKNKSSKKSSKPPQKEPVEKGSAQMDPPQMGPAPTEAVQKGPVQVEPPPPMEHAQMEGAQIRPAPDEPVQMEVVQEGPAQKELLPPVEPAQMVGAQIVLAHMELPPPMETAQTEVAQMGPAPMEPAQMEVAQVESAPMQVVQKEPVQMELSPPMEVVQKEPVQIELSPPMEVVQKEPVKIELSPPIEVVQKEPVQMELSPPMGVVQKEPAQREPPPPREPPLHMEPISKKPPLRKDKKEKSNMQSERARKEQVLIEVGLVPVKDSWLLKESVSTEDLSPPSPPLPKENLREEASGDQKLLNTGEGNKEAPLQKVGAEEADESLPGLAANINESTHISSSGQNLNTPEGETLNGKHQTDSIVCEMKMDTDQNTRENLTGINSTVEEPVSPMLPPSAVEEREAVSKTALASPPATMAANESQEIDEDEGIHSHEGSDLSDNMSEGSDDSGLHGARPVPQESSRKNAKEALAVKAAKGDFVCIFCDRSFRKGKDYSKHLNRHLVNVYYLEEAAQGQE
# Tests used:
# Experiment in all cases: log2 fold change, soluble protein after heating vs DMSO (PISA); higher = thermal stabilisation; K562 lysate, 10 uM; active = over 0.2 and 3.5 SD of the protein, either way, in both replicates (recomputed)
# nilotinib = compound: Cc1cn(-c2cc(NC(=O)c3ccc(C)c(Nc4nccc(-c5cccnc5)n4)c3)cc(C(F)(F)F)c2)cn1 [nilotinib]
# How it was run: (§1)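 Dounce homogenisation of K562 pellets in PBS pH 7.4 with 1 mM MgCl2 produced a crude extract, used at 1 mg/mL protein. Exposure to 10 μM compound lasted 30 min, and aliquots were then heated for 3 min across 48°C-58°C, pooled and brought to 0.5% NP-40 at 4°C. The supernatant after 21,000xg for 90 min was quantified by TMTpro 16plex LC-MS/MS with channel sums equalised. Duplicate values are given as log-two fold change in thermal stability relative to solvent controls.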
# [1] = compound: Cc1nc(Nc2n[nH]c3c2CN(C(=O)N[C@H](CN(C)C)c2ccccc2)C3(C)C)c2sccc2n1
# How it was run: as §1
# [2] = compound: Cc1ncc(-c2ccnc(Nc3ccc(S(C)(=O)=O)cc3)n2)n1C(C)C
# How it was run: as §1
# quisinostat = compound: Cn1cc(CNCC2CCN(c3ncc(C(=O)NO)cn3)CC2)c2ccccc21 [quisinostat]
# How it was run: as §1
# tipifarnib = compound: Cn1cncc1[C@@](N)(c1ccc(Cl)cc1)c1ccc2c(c1)c(-c1cccc(Cl)c1)cc(=O)n2C [tipifarnib]
# How it was run: as §1
# [3] = compound: NC(=O)Nc1cc(-c2cccc(F)c2)sc1C(=O)N[C@H]1CCCNC1
# How it was run: as §1
# [4] = compound: NC(=O)c1cnc(N[C@@H]2CCCC[C@@H]2N)nc1Nc1cccc(-n2nccn2)c1
# How it was run: as §1
# [5] = compound: NC1(c2ccc(-c3nc4ccn5c(=O)[nH]nc5c4cc3-c3ccccc3)cc2)CCC1
# How it was run: as §1
# dasatinib = compound: Cc1nc(Nc2ncc(C(=O)Nc3c(C)cccc3Cl)s2)cc(N2CCN(CCO)CC2)n1 [dasatinib]
# How it was run: as §1
# [6] = compound: Cn1cc(-c2ccc3c(c2)CCN3C(=O)Cc2cccc(C(F)(F)F)c2)c2c(N)ncnc21
# How it was run: as §1
target,measurement,setting,value
REEP3 (UniProt Q6NUK4),log2 fold change,nilotinib,inactive: 0.1
same,log2 fold change,[1],inactive: -0.031
same,log2 fold change,[2],inactive: 0.115
same,log2 fold change,quisinostat,inactive: 0.069
same,log2 fold change,tipifarnib,inactive: -0.126
same,log2 fold change,[3],inactive: 0
same,log2 fold change,[4],inactive: 0.018
same,log2 fold change,[5],inactive: 0
RGS3 (UniProt P49796),log2 fold change,nilotinib,inactive: 0.159
same,log2 fold change,[1],inactive: 0.035
same,log2 fold change,[2],inactive: -0.021
same,log2 fold change,quisinostat,inactive: -0.089
same,log2 fold change,tipifarnib,inactive: -0.136
same,log2 fold change,[3],inactive: 0.061
same,log2 fold change,[4],inactive: 0.104
same,log2 fold change,[5],inactive: 0.018
RFWD3 (UniProt Q6PCD5),log2 fold change,nilotinib,inactive: 0.042
same,log2 fold change,[1],inactive: -0.066
same,log2 fold change,dasatinib,inactive: 0.027
same,log2 fold change,[2],inactive: -0.082
same,log2 fold change,[6],inactive: 0.004
same,log2 fold change,quisinostat,inactive: -0.041
same,log2 fold change,tipifarnib,inactive: -0.037
same,log2 fold change,[3],inactive: 0.003
same,log2 fold change,[5],inactive: -0.053
RBM18 (UniProt Q96H35),log2 fold change,nilotinib,inactive: 0.035
same,log2 fold change,[1],inactive: 0.071
same,log2 fold change,[2],inactive: -0.251
same,log2 fold change,tipifarnib,inactive: 0.028
REXO1 (UniProt Q8N1G1),log2 fold change,nilotinib,inactive: 0.108
same,log2 fold change,[1],inactive: -0.036
same,log2 fold change,[2],inactive: 0.052
same,log2 fold change,quisinostat,inactive: -0.039
same,log2 fold change,tipifarnib,inactive: -0.165
same,log2 fold change,[3],inactive: 0.034
same,log2 fold change,[5],inactive: 0.04
RCN3 (UniProt Q96D15),log2 fold change,nilotinib,inactive: 0.035
same,log2 fold change,[1],inactive: 0.073
same,log2 fold change,dasatinib,inactive: -0.064
same,log2 fold change,[2],inactive: -0.021
same,log2 fold change,[6],inactive: 0.114
same,log2 fold change,quisinostat,inactive: 0.091
same,log2 fold change,tipifarnib,inactive: -0.043
same,log2 fold change,[3],inactive: -0.027
same,log2 fold change,[4],inactive: 0.042
same,log2 fold change,[5],inactive: -0.066
RCBTB1 (UniProt Q8NDN9),log2 fold change,nilotinib,inactive: -0.186
same,log2 fold change,[1],inactive: -0.01
same,log2 fold change,[2],inactive: 0.217
same,log2 fold change,quisinostat,inactive: 0.079
same,log2 fold change,tipifarnib,inactive: 0.175
same,log2 fold change,[3],inactive: -0.089
same,log2 fold change,[5],inactive: -0.022
REL isoform 2 (UniProt Q04864),log2 fold change,nilotinib,inactive: 0.009
same,log2 fold change,[1],inactive: -0.032
same,log2 fold change,dasatinib,inactive: -0.015
same,log2 fold change,[2],inactive: -0.041
same,log2 fold change,[6],inactive: 0.056
same,log2 fold change,quisinostat,inactive: -0.005
same,log2 fold change,tipifarnib,inactive: 0.014
same,log2 fold change,[3],inactive: 0.005
same,log2 fold change,[4],inactive: -0.009
same,log2 fold change,[5],inactive: -0.017
RELL1 (UniProt Q8IUW5),log2 fold change,quisinostat,inactive: -0.162
same,log2 fold change,[3],inactive: 0
same,log2 fold change,[5],inactive: -0.103
RBBP4 isoform 4 (UniProt Q09028),log2 fold change,nilotinib,inactive: -0.011
same,log2 fold change,[1],inactive: 0.026
same,log2 fold change,[2],inactive: 0.034
same,log2 fold change,tipifarnib,inactive: 0.043
same,log2 fold change,[4],inactive: -0.058
RBIS (UniProt Q8N0T1),log2 fold change,dasatinib,inactive: 0.02
same,log2 fold change,[6],inactive: 0.001
same,log2 fold change,quisinostat,inactive: -0.115
same,log2 fold change,[3],inactive: -0.016
same,log2 fold change,[5],inactive: -0.007
RGPD6 (UniProt H7BZ48),log2 fold change,quisinostat,inactive: -0.022
same,log2 fold change,[3],inactive: 0.007
RBBP9 (UniProt O75884),log2 fold change,quisinostat,inactive: 0
same,log2 fold change,[3],inactive: -0.02
same,log2 fold change,[5],inactive: 0.062
RBM4B (UniProt Q9BQ04),log2 fold change,quisinostat,inactive: -0.097
same,log2 fold change,[3],inactive: 0.176
RELCH (UniProt Q9P260),log2 fold change,dasatinib,inactive: -0.01
same,log2 fold change,[6],inactive: -0.135
same,log2 fold change,quisinostat,inactive: -0.034
same,log2 fold change,[3],inactive: 0.06
same,log2 fold change,[4],inactive: 0.169
RAVER2 (UniProt Q9HCJ3),log2 fold change,dasatinib,inactive: -0.106
same,log2 fold change,[6],inactive: -0.148
same,log2 fold change,quisinostat,inactive: 0.064
same,log2 fold change,[3],inactive: -0.001
same,log2 fold change,[5],inactive: 0.267
RBFOX2 isoform 8 (UniProt O43251),log2 fold change,dasatinib,inactive: 0.119
same,log2 fold change,[6],inactive: -0.167
same,log2 fold change,quisinostat,inactive: -0.217
same,log2 fold change,[3],inactive: 0.323
same,log2 fold change,[4],inactive: -0.026
same,log2 fold change,[5],inactive: -0.064
RBMXL1 (UniProt Q96E39),log2 fold change,dasatinib,inactive: -0.12
same,log2 fold change,[6],inactive: 0.028
same,log2 fold change,quisinostat,inactive: 0.009
same,log2 fold change,[3],inactive: 0.096
RBM4 isoform 3 (UniProt Q9BWF3),log2 fold change,quisinostat,inactive: -0.094
same,log2 fold change,[3],inactive: 0.06
RFX2 (UniProt P48378),log2 fold change,dasatinib,inactive: -0.013
same,log2 fold change,[6],inactive: 0.173
same,log2 fold change,quisinostat,inactive: 0.109
same,log2 fold change,[3],inactive: -0.003
same,log2 fold change,[4],inactive: 0.018
RBBP7 (UniProt C9J7L0),log2 fold change,nilotinib,inactive: -0.133
same,log2 fold change,[1],inactive: 0.046
same,log2 fold change,[2],inactive: 0.222
same,log2 fold change,tipifarnib,inactive: 0.039
RASSF3 (UniProt Q86WH2),log2 fold change,quisinostat,inactive: 0.001
same,log2 fold change,[3],inactive: 0.124
same,log2 fold change,[4],inactive: 0.134
RHBDD1 (UniProt Q8TEB9),log2 fold change,[4],inactive: 0.103
RBMY1E (UniProt A6NEQ0),log2 fold change,dasatinib,inactive: 0.079
same,log2 fold change,[6],inactive: 0.009
same,log2 fold change,quisinostat,inactive: -0.242
same,log2 fold change,[3],inactive: 0.013
same,log2 fold change,[4],inactive: 0.077
RBMX2 (UniProt Q9Y388),log2 fold change,dasatinib,inactive: 0.068
same,log2 fold change,[6],inactive: -0.133
same,log2 fold change,[4],inactive: -0.02
same,log2 fold change,[5],inactive: -0.004
RASGRP2 isoform 2 (UniProt Q7LDG7),log2 fold change,nilotinib,inactive: -0.056
same,log2 fold change,[1],inactive: 0.118
same,log2 fold change,[2],inactive: 0.03
same,log2 fold change,tipifarnib,inactive: -0.011
RHBDD2 isoform 2 (UniProt Q6NTF9),log2 fold change,[5],inactive: -0.054
RBP4 (UniProt P02753),log2 fold change,quisinostat,inactive: 0.042
same,log2 fold change,[3],inactive: 0.174
RC3H2 (UniProt Q9HBD1),log2 fold change,dasatinib,inactive: -0.001
same,log2 fold change,[6],inactive: -0.003
same,log2 fold change,quisinostat,inactive: -0.036
same,log2 fold change,[3],inactive: 0.001
same,log2 fold change,[4],inactive: 0.172
RHBDD3 (UniProt Q9Y3P4),log2 fold change,quisinostat,inactive: 0.007
same,log2 fold change,[3],inactive: -0.179
RBM12B (UniProt Q8IXT5),log2 fold change,nilotinib,inactive: -0.025
same,log2 fold change,[1],inactive: 0.002
same,log2 fold change,[2],inactive: 0.07
same,log2 fold change,tipifarnib,inactive: 0.113
RBM48 isoform 2 (UniProt Q5RL73),log2 fold change,dasatinib,inactive: 0.033
same,log2 fold change,[6],inactive: -0.025
same,log2 fold change,quisinostat,inactive: 0.003
same,log2 fold change,[3],inactive: 0.06
same,log2 fold change,[5],inactive: 0.027
RGCC (UniProt Q9H4X1),log2 fold change,[5],inactive: -0.072
RBBP4 isoform 2 (UniProt Q09028),log2 fold change,[4],inactive: 0.034
RETSAT (UniProt Q6NUM9),log2 fold change,dasatinib,inactive: -0.1
same,log2 fold change,[6],inactive: -0.058
same,log2 fold change,quisinostat,active: -0.485
same,log2 fold change,[3],inactive: 0.152
same,log2 fold change,[4],inactive: -0.005
same,log2 fold change,[5],inactive: -0.051
RHD (UniProt Q02161),log2 fold change,dasatinib,inactive: -0.05
same,log2 fold change,[6],inactive: 0.061
RFXANK (UniProt O14593),log2 fold change,dasatinib,inactive: -0.026
same,log2 fold change,[6],inactive: -0.001
same,log2 fold change,quisinostat,inactive: -0.082
same,log2 fold change,[3],inactive: 0.096
same,log2 fold change,[4],inactive: -0.003
same,log2 fold change,[5],inactive: 0.022
RBKS (UniProt Q9H477),log2 fold change,dasatinib,inactive: -0.294
same,log2 fold change,[6],inactive: 0.184
RBM15 (UniProt Q96T37),log2 fold change,dasatinib,inactive: -0.158
same,log2 fold change,[6],inactive: -0.088
same,log2 fold change,quisinostat,inactive: -0.02
same,log2 fold change,[3],inactive: 0.041
same,log2 fold change,[4],inactive: -0.002
same,log2 fold change,[5],inactive: 0.083
REST (UniProt Q13127),log2 fold change,dasatinib,inactive: -0.006
same,log2 fold change,[6],inactive: 0.055
same,log2 fold change,quisinostat,inactive: -0.012
same,log2 fold change,[3],inactive: -0.083
same,log2 fold change,[4],inactive: 0.012
same,log2 fold change,[5],inactive: -0.068
RESF1 (UniProt Q9HCM1),log2 fold change,dasatinib,inactive: -0.055
same,log2 fold change,[6],inactive: -0.089
same,log2 fold change,quisinostat,inactive: 0.177
same,log2 fold change,[3],inactive: -0.041

# 48 entries from above, reformatted:
target	measurement	setting	value
RBBP9 (UniProt O75884)	log2 fold change	quisinostat	inactive: 0
same	log2 fold change	[3]	inactive: -0.02
same	log2 fold change	[5]	inactive: 0.062
RBM4B (UniProt Q9BQ04)	log2 fold change	quisinostat	inactive: -0.097
same	log2 fold change	[3]	inactive: 0.176
RELCH (UniProt Q9P260)	log2 fold change	dasatinib	inactive: -0.01
same	log2 fold change	[6]	inactive: -0.135
same	log2 fold change	quisinostat	inactive: -0.034
same	log2 fold change	[3]	inactive: 0.06
same	log2 fold change	[4]	inactive: 0.169
RAVER2 (UniProt Q9HCJ3)	log2 fold change	dasatinib	inactive: -0.106
same	log2 fold change	[6]	inactive: -0.148
same	log2 fold change	quisinostat	inactive: 0.064
same	log2 fold change	[3]	inactive: -0.001
same	log2 fold change	[5]	inactive: 0.267
RBFOX2 isoform 8 (UniProt O43251)	log2 fold change	dasatinib	inactive: 0.119
same	log2 fold change	[6]	inactive: -0.167
same	log2 fold change	quisinostat	inactive: -0.217
same	log2 fold change	[3]	inactive: 0.323
same	log2 fold change	[4]	inactive: -0.026
same	log2 fold change	[5]	inactive: -0.064
RBMXL1 (UniProt Q96E39)	log2 fold change	dasatinib	inactive: -0.12
same	log2 fold change	[6]	inactive: 0.028
same	log2 fold change	quisinostat	inactive: 0.009
same	log2 fold change	[3]	inactive: 0.096
RBM4 isoform 3 (UniProt Q9BWF3)	log2 fold change	quisinostat	inactive: -0.094
same	log2 fold change	[3]	inactive: 0.06
RFX2 (UniProt P48378)	log2 fold change	dasatinib	inactive: -0.013
same	log2 fold change	[6]	inactive: 0.173
same	log2 fold change	quisinostat	inactive: 0.109
same	log2 fold change	[3]	inactive: -0.003
same	log2 fold change	[4]	inactive: 0.018
RBBP7 (UniProt C9J7L0)	log2 fold change	nilotinib	inactive: -0.133
same	log2 fold change	[1]	inactive: 0.046
same	log2 fold change	[2]	inactive: 0.222
same	log2 fold change	tipifarnib	inactive: 0.039
RASSF3 (UniProt Q86WH2)	log2 fold change	quisinostat	inactive: 0.001
same	log2 fold change	[3]	inactive: 0.124
same	log2 fold change	[4]	inactive: 0.134
RHBDD1 (UniProt Q8TEB9)	log2 fold change	[4]	inactive: 0.103
RBMY1E (UniProt A6NEQ0)	log2 fold change	dasatinib	inactive: 0.079
same	log2 fold change	[6]	inactive: 0.009
same	log2 fold change	quisinostat	inactive: -0.242
same	log2 fold change	[3]	inactive: 0.013
same	log2 fold change	[4]	inactive: 0.077
RBMX2 (UniProt Q9Y388)	log2 fold change	dasatinib	inactive: 0.068
same	log2 fold change	[6]	inactive: -0.133
same	log2 fold change	[4]	inactive: -0.02
